This passage reports cell number change and AC50 results from PubChem BioAssay AID2685 (National Center for Advancing Translational Sciences (NCATS), 2010).

This assay can be described thus: qHTS Assay for Lipid Storage Modulators in Drosophila S3 Cells.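 As to cell number change: cells counted by Cell Tracker Red CMTPX staining in the red channel.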 The note with it: BODIPY lipid droplet fluorescence, 18-24 h; for cell number change: measured here: cell count max response, cells fed with added oleic acid. In a few lines:
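Drosophila S3 cells got compounds at several concentrations plus oleic acid (400 uM solution). Laser-scanning cytometry with 488 nm excitation read lipid droplets at 500-530 nm and cells at 575-640 nm. Percent activity was relative to 20 uM Triacsin C.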
On the technique in general: qHTS replaces the single test concentration by a dilution series.

Setting [1] is: measured here: cell number channel AC50, cells fed with added oleic acid.
[2] abbreviates: measured here: lipid fluorescence (Fed channel) AC50, cells fed with added oleic acid.

A word on the AC50: it is the midpoint of the concentration-response curve, whichever way the signal moves.

The structures appear in SMILES notation. The list shows a part of the results. The main result of the screen is listed elsewhere. These columns were measured beside it and carry no call. Most of these compounds were active or inconclusive in the main read-out, so they are no random draw. Potencies come from curve fits of mixed quality, noted in brackets.

For `Cc1ccccc1NC(=O)N1CCN(C/C=C/c2ccccc2)CC1`, the cell number change was -45%.
In the case of `O=C(Nc1ccc2c(c1)nc1n2CCN(Cc2ccccc2)C1)NC1CCCCC1`, the cell number change is 51.9%. Also, under setting [1], the AC50 is 0.291 µM [rising, full curve]. In addition, the AC50 under setting [2] is 1.64 µM [rising, partial curve].
As to `COC(=O)c1ccccc1NC(=O)c1cc[n+]([O-])cc1`, the cell number change is 6.57%. In addition, the AC50 under setting [2] is 4.11 µM [rising, full curve, poor fit].
For `O=c1[nH]c(SCc2cccc(Cl)c2)nc2[nH]ncc12`, the cell number change is -12.8%. The AC50 under setting [1] was 0.0058 µM [falling, full curve, poor fit].
With `C=CCN1C(=O)C(CC(=O)Nc2ccc(OCCC)cc2)N(CCCN2CCN(Cc3ccccc3)CC2)C1=S` (stereo unspecified), the cell number change was -83.6%. In addition, the AC50 under setting [1] is 16.4 µM [falling, single point]. In addition, under setting [2], the AC50 is 20.6 µM [falling, single point].
As to `Cc1ccc(S(=O)(=O)N2CCCCC2)cc1NC(=O)CSc1nnnn1C`, the cell number change worked out at 9.61%. In addition, under setting [2], the AC50 was 8.2 µM [rising, partial curve, poor fit].
Regarding `CC(C)(C)NS(=O)(=O)c1ccc(OCC(=O)NCCC2=CCCCC2)cc1`, the cell number change is -0.841%. In addition, the AC50 under setting [2] was 0.13 µM [falling, full curve, poor fit].
For the compound `CC(C)Oc1cc(NC(=O)CS(=O)CC(=O)Nc2cccc(C(F)(F)F)c2)c(Cl)cc1Cl` (stereo unspecified), the cell number change was -79.2%. Also, the AC50 under setting [2] was 29.1 µM [falling, single point].
Turning to `CC(OC(=O)c1ccc(NC(=O)CC#N)cc1)C(=O)Nc1ccc(Oc2ccccc2)cc1` (stereo unspecified), under setting [2], the AC50 was 29.1 µM [rising, single point].
As to `O=C(c1n[nH]c2ccccc12)N1CCCCC1`, the AC50 under setting [2] was 0.082 µM [falling, full curve, poor fit].
`O=C(Cc1cccs1)Nc1ccc(-c2nnc(-c3ccco3)o2)cc1`: the cell number change is -27%. Also, under setting [2], the AC50 was 0.00517 µM [rising, full curve, poor fit].
With `COc1ccc(C(=O)Cn2c(C(=O)/C=C/c3ccccc3)nc3ccccc32)cc1`, the cell number change was -12.4%. Under setting [2], the AC50 was 29.1 µM [falling, single point].
Take `Cc1ccc(OCC(=O)N/N=C\c2ccncc2)c(C)c1`: the cell number change was found to be 15.7%. The AC50 under setting [2] is 10.3 µM [rising, partial curve].
For `c1nnc(NC2=NCCCCC2)s1`, the half-maximal activity concentration (AC50) is, setting by setting: under setting [1], 0.058 µM [falling, full curve]; under setting [2], 23.1 µM [falling, partial curve, poor fit].
On to `O=C(NCc1ccc(Cl)cc1)c1ccc(S(=O)(=O)N2CCCCC2)cc1`, for which the cell number change was 37.6%. In addition, the AC50 under setting [1] is 23.1 µM [rising, single point]. Moreover, the AC50 under setting [2] is 29.1 µM [rising, single point].
As to `O=C1C(=O)N(CCO)C(c2ccc(Br)cc2)/C1=C(\O)c1ccccc1` (stereo unspecified), the cell number change was -2.36%.
As to `Cc1ccc(-c2nc(N/N=C/c3cccnc3)c3ccccc3n2)cc1`, the cell number change was determined as 37.8%. In addition, the AC50 under setting [1] was 2.91 µM [rising, full curve]. In addition, under setting [2], the AC50 was 29.1 µM [falling, partial curve, poor fit].
Turning to `CN(C(=S)NC(=O)C1(C)CC1(Cl)Cl)c1ccccc1` (stereo unspecified), the cell number change is -94%. Also, the AC50 under setting [1] is 23.1 µM [falling, partial curve]. The AC50 under setting [2] is 5.8 µM [falling, partial curve].
For `O=C(O)c1ccc(N=N/C(=N\Nc2ccc(C(=O)O)cc2)c2ccccc2)cc1`, the cell number change is -13.6%.
Regarding `CCCCCCC(=O)N/N=C1\CCCc2ccccc21`, the cell number change was -34.2%. In addition, the AC50 under setting [1] is 32.6 µM [falling, single point].
With `CCOc1ccc(NC(=O)CN(C)C(=O)c2ccc(-c3ccc(C(C)=O)cc3)o2)cc1OCC`, the AC50 under setting [1] is 3.66 µM [rising, partial curve, poor fit].
In the case of `CCc1ccccc1N(CC)C(=O)C1CCN(c2ncnc3c2nc2n3CCCCC2)CC1`, the cell number change is -9.85%. For the same compound, the AC50 under setting [2] was 29.1 µM [falling, single point].
On to `NNc1nc2sc3c(c2c(=O)n1-c1ccccc1)CCCC3`, for which the cell number change came to 9.62%. Besides, the AC50 under setting [2] is 4.11 µM [rising, partial curve, poor fit].
For the compound `O=S(=O)(c1ccc2c(c1)nc(COc1ccc(Cl)cc1)n2CC1CCCO1)N1CCOCC1` (stereo unspecified), the cell number change amounted to 0.0646%. For the same compound, the AC50 under setting [2] is 0.259 µM [rising, full curve, poor fit].
Regarding `O=c1[nH]c(NCc2ccccc2)nc2c1CCCC2`, the cell number change came to 31.2%. Moreover, the AC50 under setting [1] is 29.1 µM [rising, single point].
For the compound `Cn1ncc(C(N)=O)c1NC(=S)NC(=O)c1ccc(Br)o1`, the cell number change stood at 18.3%. The AC50 under setting [1] is 0.00461 µM [rising, full curve, poor fit]. In addition, the AC50 under setting [2] was 0.00461 µM [rising, full curve, poor fit].
Take `CCOc1ccc(S(=O)(=O)N(CC)CC(=O)NCc2ccncc2)cc1`: the cell number change was -42.9%. Also, the AC50 under setting [1] is 25.9 µM [falling, single point].
In the case of `COc1ccc(Sc2nc(-c3ccccc3)ncc2OC)cc1`, the cell number change is 30.9%. Further, the AC50 under setting [1] is 6.51 µM [rising, single point].
Consider `CCN(CC)CCN(C(=O)c1ccc2ncsc2c1)c1nc2cc3c(cc2s1)OCO3`, for which the cell number change was 3.88%. Besides, under setting [2], the half-maximal activity concentration (AC50) was 13 µM [rising, partial curve, poor fit].
Regarding `O=C(Nc1sc2c(c1C(=O)O)CCCCC2)c1cccs1`, the cell number change was 57%. The AC50 under setting [1] was 0.00651 µM [rising, full curve, poor fit].
As to `O=C(CN1CCN(C(=O)c2ccco2)CC1)Nc1cccc(S(=O)(=O)N2CCCC2)c1`, the cell number change is -11.6%. The AC50 under setting [2] was 0.517 µM [falling, partial curve, poor fit].
For `Cc1ccc(/C=N/NC(=O)CNC(=O)c2ccc(S(=O)(=O)N(C)C)cc2)cc1`, the cell number change came out at 12.8%.
In the case of `COc1ccc(CN2CCC(c3nc4ccc(Cl)cc4[nH]3)CC2)cc1`, the cell number change is 16.6%. Moreover, the AC50 under setting [2] was 0.00517 µM [falling, full curve, poor fit].
Turning to `COc1ccc(N(CC(=O)NCCSc2ccccc2)S(C)(=O)=O)cc1`, the cell number change stood at 13.7%. Moreover, the AC50 under setting [2] was 29.1 µM [rising, single point].
For the compound `CN(C)S(=O)(=O)c1cccc(NC(=O)c2cc([N+](=O)[O-])ccc2N2CCCCC2)c1`, the cell number change was determined as 1.74%. Further, the AC50 under setting [2] was 7.31 µM [rising, full curve, poor fit].
On to `Cc1nc(N2CCOCC2)[nH]c(=O)c1CCC(C)C`, for which the cell number change was -7.82%. Moreover, under setting [2], the AC50 is 23.1 µM [falling, single point].
Take `c1ccc2c(c1)C(=NC1CCCCC1)NC2=NC1CCCCC1`: the cell number change was 5.98%. Under setting [2], the AC50 is 29.1 µM [falling, single point].
For the compound `CCCCCn1c(=O)[nH]c2cc(C(=O)N3CCN(Cc4ccc5c(c4)OCO5)CC3)ccc2c1=O`, the cell number change is -34.6%. Moreover, under setting [1], the AC50 was 1.3 µM [falling, full curve].
Take `O=c1[nH]c(=O)n(Cc2ccccc2)c2nc(-c3cccs3)n(CCO)c12`: the cell number change was -47%. Further, under setting [1], the AC50 is 14.6 µM [falling, single point]. The AC50 under setting [2] was 16.4 µM [falling, partial curve].
On to `COC(=O)c1ccccc1NC(=O)c1cc(-c2ccco2)on1`, for which the cell number change is 18.5%. For the same compound, under setting [2], the AC50 is 6.51 µM [rising, single point].
Consider `Nc1nc(CN2CCN(Cc3ccc4c(c3)OCO4)CC2)nc(Nc2ccccc2)n1`, for which the AC50 under setting [1] is 0.0058 µM [rising, full curve, poor fit].
In the case of `O=C(NCCc1ccccc1)c1cccc(S(=O)(=O)NCc2ccccc2)c1`, the AC50 under setting [2] was 18.4 µM [falling, single point].
For `CCN(c1cccc(C)c1)c1nc2ccsc2c(=O)s1`, the cell number change was -5.58%.
Take `COc1ccc(C(=O)NCc2ccc(Cl)c(Cl)c2)cc1OC`: the cell number change stood at 48%. Also, the AC50 under setting [1] is 10.3 µM [rising, partial curve, poor fit]. The AC50 under setting [2] is 1.84 µM [rising, full curve, poor fit].
`O=C(C1CCC(=O)N(C2CCCC2)C1)N1CCC(Oc2ccccc2Cl)CC1` (stereo unspecified): the cell number change is -6.45%. Also, the AC50 under setting [2] was 29.1 µM [falling, single point].
On to `O=C(Nc1nccs1)c1ccc(N2CCOCC2)c([N+](=O)[O-])c1`, for which the cell number change is -12.1%. For the same compound, the AC50 under setting [2] is 0.146 µM [falling, full curve].
On to `CCCOc1ccc2[nH]c(C(=O)N/N=C/c3cc(OC)c(OC)c(OC)c3)cc2c1`, for which the cell number change is -32%. Moreover, the AC50 under setting [2] is 14.6 µM [falling, partial curve].
Consider `COc1ccccc1CN(CC(=O)NCc1ccc2c(c1)OCO2)C(=O)c1csnn1`, for which the cell number change is 23.8%. Further, the AC50 under setting [2] is 29.1 µM [rising, single point].
Take `O=C(CCCN1C(=O)c2ccccc2C1=O)Oc1ccc(F)cc1`: the cell number change was -75.6%. Under setting [1], the AC50 is 3.66 µM [falling, full curve]. Under setting [2], the AC50 is 4.11 µM [falling, full curve].
As for `CC(C)NC(=O)Cn1cnc2c(cnn2-c2ccc(F)cc2)c1=O`, the cell number change stood at 3.59%. The AC50 under setting [2] is 29.1 µM [rising, single point].
Turning to `O=C1OCCC1Sc1ncnc2sccc12` (stereo unspecified), the cell number change is -43.5%. In addition, under setting [1], the AC50 is 29.1 µM [falling, single point]. In addition, the AC50 under setting [2] was 20.6 µM [falling, single point].
Take `CCCCc1nnc(NC(=O)CSCc2cc(=O)n3c(C)csc3n2)s1`: the AC50 under setting [2] is 16.4 µM [rising, single point].
Turning to `O=S(=O)(c1ccccc1)N1CCN(CC(O)COc2ccc3c(c2)CCC3)CC1` (stereo unspecified), the cell number change was -13.5%. Moreover, the AC50 under setting [1] was 4.11 µM [falling, single point].
As for `COc1cccc(C(=O)CC(C#N)c2ccc(F)cc2)c1` (stereo unspecified), the cell number change was found to be 23.4%.
With `CCOc1c(Br)cc(/C=C2\C(=O)N(CCC#N)N=C2C)cc1OC`, the cell number change is -31.3%. Also, the AC50 under setting [1] is 13 µM [falling, single point].
`N#Cc1ccsc1NC(=O)CN1CCCCCC1`: the cell number change was -3.43%. Moreover, under setting [2], the AC50 is 5.8 µM [rising, full curve].
As to `CC(C)Oc1cccc(C(=O)NC(=S)Nc2cccc(NC(=O)c3ccccc3Cl)c2)c1`, the cell number change is 10.8%. Further, under setting [1], the AC50 is 0.651 µM [falling, partial curve, poor fit]. Further, the AC50 under setting [2] was 1.16 µM [falling, single point].
As to `CCCN1C(=O)/C(=C2/C=Cc3ccccc3N2CC)SC1=S`, the cell number change is -32%. The AC50 under setting [1] is 29.1 µM [falling, single point]. Further, the AC50 under setting [2] was 0.231 µM [falling, full curve].
